Record: PubChem BioAssay AID1259425 (University of Nebraska Medical Center, 2018)
The deposit covers about 14,000 reagents; shown is a random part of them. Further read-outs or replicates are left out here. Not given: the time to read-out.

Test: 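Seek colon cancer weak points whose silencing resembles KSR1 loss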 (primary screen)
Cell system: HCT116 human colon cancer cells
Reagents: siRNA pool against human genes, 50 nM siRNA
Measurement: 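mRNA of six signature genes measured together by branched-DNA assay after 50 nM siRNA pool, blank removed, divided by geometric mean of two housekeeping genes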
Reading the numbers: BNIP3L mRNA: higher = more BNIP3L transcript after knockdown

Knock-down of ARAF (GeneID 369) gave: BNIP3L mRNA, set 1 = 0.0614. Depletion of NEURL1 (GeneID 9148) resulted in: BNIP3L mRNA, set 1 = 0.0988. With knock-down of WNT7B (GeneID 7477) the results were BNIP3L mRNA, set 1 = 0.0834. For VPS11 (GeneID 55823), the values are BNIP3L mRNA, set 1 = 0.214. Silencing of EPHX3 (GeneID 79852) came out at: BNIP3L mRNA, set 1 = 0.0684. STS (GeneID 412) showed BNIP3L mRNA, set 1 = 0.0335.

For RPE (GeneID 6120) the deposit lists BNIP3L mRNA, set 1 = 0.0735. Depletion of CLK2 (GeneID 1196) gave: BNIP3L mRNA, set 1 = 0.0738. For PRR7 (GeneID 80758), the entry reads BNIP3L mRNA, set 1 = 0.198. With knock-down of ARMCX3 (GeneID 51566), the screen gave BNIP3L mRNA, set 1 = 0.071. Against TBL3 (GeneID 10607), the values are BNIP3L mRNA, set 1 = 0.148.

Entries listed so far whose target name starts with A or a:
ARAF (GeneID 369) | BNIP3L mRNA, set 1 = 0.0614
ARMCX3 (GeneID 51566) | BNIP3L mRNA, set 1 = 0.071

Next results follow.
After knock-down of COL1A1 (GeneID 1277), the screen gave BNIP3L mRNA, set 1 = 0.0681. After knock-down of NPY1R (GeneID 4886), the screen gave BNIP3L mRNA, set 1 = 0.274. After knock-down of CHCHD2 (GeneID 51142), the screen gave BNIP3L mRNA, set 1 = 0.155. With knock-down of CCT6A (GeneID 908), the record shows BNIP3L mRNA, set 1 = 0.0835. Against MYBPC3 (GeneID 4607), the entry reads BNIP3L mRNA, set 1 = 0.1. Depletion of UCHL3 (GeneID 7347) came out at: BNIP3L mRNA, set 1 = 0.0793.

Silencing of ZNF79 (GeneID 7633) came out at: BNIP3L mRNA, set 1 = 0.191. For RPS15A (GeneID 6210), the entry reads BNIP3L mRNA, set 1 = 0.138. MZB1 (GeneID 51237) showed BNIP3L mRNA, set 1 = 0.115. With knock-down of DAZAP1 (GeneID 26528), the record shows BNIP3L mRNA, set 1 = 0.0868. PDC (GeneID 5132) showed BNIP3L mRNA, set 1 = 0.116. With knock-down of MYO18B (GeneID 84700) the results were BNIP3L mRNA, set 1 = 0.17.

Depletion of CHD4 (GeneID 1108) gave: BNIP3L mRNA, set 1 = 0.116. Silencing of QARS1 (GeneID 5859) came out at: BNIP3L mRNA, set 1 = 0.268. MLXIPL (GeneID 51085) scored BNIP3L mRNA, set 1 = 0.182. CAPNS2 (GeneID 84290) scored BNIP3L mRNA, set 1 = 0.191. After knock-down of TASL (GeneID 80231), the screen gave BNIP3L mRNA, set 1 = 0.113.
